In article PMC3945225:
A negative result means that nothing was seen under these conditions.

Chains of the proteins cited; added tags and fusions are not shown. Chains listed by the source or under a name are the forms on record and can include a tag or linker.
Flag-RBPJ (mouse), one chain, as listed by the source: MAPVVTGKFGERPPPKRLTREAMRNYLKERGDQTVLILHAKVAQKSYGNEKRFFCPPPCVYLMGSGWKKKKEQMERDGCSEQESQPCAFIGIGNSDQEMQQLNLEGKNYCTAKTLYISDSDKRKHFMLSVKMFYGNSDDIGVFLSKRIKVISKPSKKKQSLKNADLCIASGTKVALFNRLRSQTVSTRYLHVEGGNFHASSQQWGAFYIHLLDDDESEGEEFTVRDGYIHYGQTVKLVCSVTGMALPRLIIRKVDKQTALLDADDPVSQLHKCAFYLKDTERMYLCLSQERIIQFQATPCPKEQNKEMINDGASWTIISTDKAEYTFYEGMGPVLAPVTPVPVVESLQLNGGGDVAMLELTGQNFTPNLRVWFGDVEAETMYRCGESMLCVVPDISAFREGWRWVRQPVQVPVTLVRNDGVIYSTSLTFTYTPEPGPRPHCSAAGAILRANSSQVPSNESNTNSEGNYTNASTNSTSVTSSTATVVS

Tested on: Flag-RBPJ (mouse)
Experiment: EMSA
Conditions: 1 nM DNA, little or no binding up to 200 nM RBPJ; 12 mM Hepes pH 7.9, 10 mM Tris-HCl pH 7.5, 60 mM KCl, 8% glycerol, 4 mM MgCl2, 0.02% NP40, 30 C; 5% PAGE 0.5x TBE; recombinant protein; residues 1-487; protein details: Flag; label: 32P (T4 PNK)

## GGCCACTAGGGGGCGC (double strand) [16 bp CTCF motif DNA]
  binding result: no binding
